First the molecules themselves.
B1: nuclear transcription factor Y subunit gamma (protein, UniProt P70353 1-335)
chain: MSTEGGFGGTSSSDAQQSLQSFWPRVMEEIRNLTVKDFRVQELPLARIKKIMKLDEDVKMISAEAPVLFAKAAQIFITELTLRAWIHTEDNKRRTLQRNDIAMAITKFDQFDFLIDIVPRDELKPPKRQEEVRQSVTPAEPVQYYFTLAQQPTAVQVQGQQQGQQTTSSTTTIQPGQIIIAQPQQGQTTPVTMQVGEGQQVQIVQAQPQGQAQQTQSGTGQTMQVMQQIITNTGEIQQIPVQLNAGQLQYIRLAQPVSGTQVVQGQIQTLATNAQQITQTEVQQGQQQFSQFTDGQQLYQIQQVTMPAGQDLAQPMFIQSANQPSDGQTPQVTGD
B2: apoptotic chromatin condensation inducer in the nucleus (protein, UniProt Q9JIX8 1-1338)
chain: MWGRKRPNSSGETRGILSGNRGVDYGSGRGQSGPFEGRWRKLPKMPEAVGTDPSTSRKMAELEEVTLDGKPLQALRVTDLKAALEQRGLAKSGQKSALVKRLKGALMLENLQKHSTPHAAFQPNSQIGEEMSQNSFIKQYLEKQQELLRQRLEREAREAAELEEASAESEDEMTHPEGVASLLPPDFQSSLNRPELELSTHSPRKSSSFSEEKGESDDEKPRKGERRSSRVRQAKSKLPEYSQTAEEEEDQETPSRNLRVRADRNLKIEEEEEEEEEEEDDDDEEEEEVDEAQKSREAEAPTLKQFEDEEGEERTRAKPEKVVDEKPLNIRSQEKGELEKGGRVTRSQEEARRSHLARQQQEKETQIVSLPQEENEVKSSQSLEEKSQSPSPPPLPEDLEKAPVVLQPEQIVSEEETPPPLLTKEASSPPTHIQLQEEMEPVEGPAPPVLIQLSPPNTDAGAREPLASPHPAQLLRSLSPLSGTTDTKAESPAGRVSDESVLPLAQKSSLPECSTQKGVESEREKSAPLPLTVEEFAPAKGITEEPMKKQSLEQKEGRRASHALFPEHSGKQSADSSSSRSSSPSSSSSPSRSPSPDSVASRPQSSPGSKQRDGAQARVHANPHERPKMGSRSTSESRSRSRSRSRSASSSSRKSLSPGVSRDSNTSYTETKDPSCGQEAAAPSGPQLQVLEPKEKAPTFSASVRGRHLSHPEPEQQHVIQRLQPEQGSPKKCEAEEAEPPAATQPQTSETQISHLLESERTHHTVEEKEEVTMDTSENRPENEVPEPPLPVADQVSNDERPEGGAEEEEKKESSMPKSFKRKISVVSATKGVQAGNSDTEGGQPGRKRRWGASTAATQKKPSISITTESLKSLIPDIKPLAGQEAVVDLHADDSRISEDETERNGDDGTHDKGLKICRTVTQVVPAEGQENGQREEEEEKEPEAELPAPPQVSVEVALPPPVEHEVKKVTLGDTLTRRSISQQKSGVSITIDDPVRTAQVPSPPRGKISNIVHISNLVRPFTLGQLKELLGRTGTLVEEAFWIDKIKSHCFVTYSTVEEAVATRTALHGVKWPQSNPKFLCADYAEQDELDYHRGLLVDRPSETKAEEQGAPRPLHPPPPPPVQPPPHPRAEQREQERAVREQWAEREREMERRERTRSEREWDRDKVREGPRSRSRSRDRRRKERAKSKEKKSEKKEKAQEEPPAKLLDDLFRKTKAAPCIYWLPLTESQIVQKEAEQAERAKEREKRRKEREEEEQKEREKEAERERNRQLEREKRREHSRERERDRERERDRGDRERERERDRDRGRERDRRDTKRHSRSRSRSTPVRDRGGRR
B3: zinc finger protein 219, isoform CRA_a (protein, UniProt Q6IQX8 1-726)
chain: MEGSRPRILVGHLEPSPPAFDGELDLQRYSNGPGVSGTPGPGSPGMGAVGWSETRAGERRFPCPVCGKRFRFNSILALHLRAHPGAQAFQCPHCGHRAAQRALLRSHLRTHQPERPRSPAARLLLELEERALLREARLGRARSSGGMQSSPAAEGLARPQVPSSSAFRCPFCKGKFRTSAERERHLHILHRPWKCSLCSFGSSQEEELLHHSLTAHGASERPLAATSTPEPPPPPQQEPRSALEPEPEPEPRPEPDREANPAPTPAPPEEPPAPPEFRCQVCGQSFTQSWFLKGHMRKHKASFDHACPVCGRCFKEPWFLKNHMKVHTSKLGPLRAPGPGSAPARAPQPPDLSLLAYEPLGPALLLAPAPAPAERREPPSLLGYLSVRAGEVRPNGEGADPGGGRSYGGFRPLPSALPNRARRHRTEEPEEEEEVVEAEEESWARGRSLGSLTSLHPNPGEGSGQPAPAAGTQARSTATQEENGLLVGGTRSEAGRGATGKDCPFCGKSFRSAHHLKVHLRVHTGERPYKCPHCDYAGTQSGSLKYHLQRHHREQRSSAGPGPPPEPPPPSQRGSLQPQSGAKPTQASATWVEGTASTRPPSSSTGPGSRRKPASPGRTLRNGRGGEAEPLDLSLRAGPGGEAGAGGALHRCLFCPFATGAPELMALHLQVHHSRRARGRRQPRADTSPTYVRAPSGETPPSPPLEEEGSPGLSRSGEAGLGGQER
B4: interferon-activable protein 202 (protein, UniProt Q9R002 1-445)
chain: MSNRNLRSSTNSEFSEGQHQTPSSDSSGHGEDQPQASPGPNKKSHTPKKNISKGAVLHEKPMTVMVLTATEPFNYKEGKENMFHATVATESQYYRVKVFNMDLKEKFTENKFITISKYFNSSGILEINETATVSEAAPNQIIEVPKNIIRSAKETLKISKIKELDSGTLIYGVFAVEKKKVNDKSITFKIKDNEDNIKVVWDKKQHNINYEKGDKLQLFSFHLRKGNGKPILHSGNHSFIKGEKLLKESFEGDGYHKGPKQVVALKATKLFTYDSIKSKKMFHATVATDTEFFRVMVFEENLEKKFIPGNTIALSDYFGMYGSLAIHEYSSVSEVKSQNKEDSSSSDERLIEHLKICDLHLQTKERLVDGEFKVYRKSTGNNCICYGIWDDTGAMKVVVSGQLTSVNCEIGNTIRLVCFELTSNADEWFLRSTRYSYMEVIMPEK
B5: Zscan4b (protein, UniProt E9Q3G0 1-505)
chain: MASQQAPAKDLQTNNLEFTPTDSSGVQWAEDISNSPSAQLNFSPSNNGCWATQELQSLWKMFNSWLQPEKQTKEQMISQLVLEQFLLTGHCKDKYALTEKWKASGSDMRRFMESLTDECLKPPVMVHVSMQGQEALFSENMPLKEVIKLLKQQQSATRPIPDNAQMPVDTTQDRLLATGQENSENECNTSCNATEVNVGESCSGNEKDSLLITQKEQNHEHEEGNVVCQFPRGARRASQDTSSHHVDFPSALTPADVPMEEQPMDLSRENISEDKNNCYNTSRNAATQVYSGDNIPRNKTDSLFINKRIYHPEPEVGDIPYGVPQDSTRASQGTSTCLQESLGECFSEKDPREVPGLQSRQEQPISDPVLGKNHEANLPCESHQKRFHRDAKLYKCEECSRMFKHARSLSSHQRTHLNKKSELLCITCQKIFKRVSDLRTHEIIHMSEKPFKCSTCEKSFSHKTNLKYHEMIHTGEMPYVCSLCSRRFRQSSTYHRHLRNYHRSD
B6: transcription termination factor 2 (protein, UniProt Q5NC05 1-1138)
chain: MDLVKCPEHGDACFLKTGVRDGPNKGKSFYVCRTNTCGFVQATDIPVSHCLLHEEFVVELQGLFLPQDKKEWRLFFRCARTKAEGKQWCGNVPWRQDPNPKELSVTSKPQQPSESQLHSPSQPRNPFRVLNKNQKTLERKQFVEEGERKTADKKLRENNEQLLDQRKEQKPKSNSRMEKDPSSDLVATRQSGGDREEQEKSKFQPKTKKAEGMASKQGHGEVLQGIPKGPHMSESESRGVPNKPETLREKETQLLVPSVPGQNPESKVQKEGHVSREPLKNGEAPSAQVTQRGLAQGPLQGPSKTWRPVPEAPAAPELCSGMAHHATSSSEDSEDDGVSSRPGSPLLFDSTVDSQKKGSLQHSDQSVQRQMPAASGVSKKGDSSDPAAQRANLTTQLKQKKGTLAAVNIQALPDKGEKLLKQIQALEDALSALALSPEQGTKEKCSAQEPEQSNITKAAAAPLHLVPPQPLPRPLIQPASSLGLKAGRQETPEGASQCSGGHMNQHHLYNVWKITSEAIDELHRSLKSCPGETAVAEDPAGLKVPLLLHQKQALAWLLWRESQKPQGGILADDMGLGKTLTMIALILTKKNQQKSKEKERSEPVTWLSKNDSSVFTSSGTLIVCPASLIHHWKNEVEKRVTSNRLRIYLYHGPNRSRHAKVLSTYDIVITTYSLLAKEIPTTKQEGEVPGANLSVEGTSAPLLQVVWARIILDEAHNVKNPRVQTSIAVCKLQAQARWAVTGTPIQNNLLDMYSLMKFLRCSPFDEFSLWKSQVDNGSMKGGERLSILTKSLLLRRTKDQLDSTGKPLVALPARRCQLHRLKLSEDERAVYDIFLARSRSALQSYLKRQEGRGSHHGRSPDNPFSRVAQEFGSSVSQGCPAADSQRPSTVHVLSQLLRLRQCCCHLSLLKSALDPTELESEGLVLSLEEQLSALTLSKVDVSEPSPTVSLNGTCFKAELFDDTRRSTKVSSLLAELEAIQKGPGSQKSVIVSQWTSMLQVVALHLKKNRLTYATIDGSVNPKQRMDLVEAFNHSQGPQVMLISLLAGGVGLNLTGGNHLFLLDMHWNPSLEDQACDRIYRVGQKKDVVIHRFVCEGTVEEKILQLQEKKKDLAKQVLSGSEGPVTKLTLADLKILFGI
B7: Zinc finger protein 513 (protein, UniProt Q6PD29 1-541)
chain: MPRRKQSHPQPVKCEGVKVDTEDSFDEGPGALVLESDLLLGQDLEFEEEEEEDEGDGHNDQLMGFERDSEGDSQGARPGLPYGLSDDESGGGRALSAESEVEEPARGPGEARGERPGPACQLCGGPTGEGPCCGAGGPGGGPPLPPRLLYSCRLCAFVSHYSSHLKRHMQTHSGEKPFRCGRCPYASAQLVNLTRHTRTHTGEKPYRCPHCPFACSSLGNLRRHQRTHTGPPTPPCPTCGFRCCAPRPTRPPSPTEQEGTMPRRSEDALILPDLSLHVPPGGASFLPDCGQLRGEGESLCGTGSEPLPELLFPWTCRGCGQELEEGEGSRLGAAMCGRCMRGEAGGVATGGPQGPGDKGFACSLCPFATHYPNHLARHMKTHSGEKPFRCARCPYASAHLDNLKRHQRVHTGEKPYKCPLCPYACGNLANLKRHGRIHSGDKPFRCSLCNYSCNQSMNLKRHMLRHTGEKPFRCATCAYTTGHWDNYKRHQKVHGHGGAGGPGLSAPEGWAPPHSPPSVLSTRGPAALGATGSRALHSDSP

By UniProt entry, the sequences of proteins in these tests, tags left out.
UniProt P20263: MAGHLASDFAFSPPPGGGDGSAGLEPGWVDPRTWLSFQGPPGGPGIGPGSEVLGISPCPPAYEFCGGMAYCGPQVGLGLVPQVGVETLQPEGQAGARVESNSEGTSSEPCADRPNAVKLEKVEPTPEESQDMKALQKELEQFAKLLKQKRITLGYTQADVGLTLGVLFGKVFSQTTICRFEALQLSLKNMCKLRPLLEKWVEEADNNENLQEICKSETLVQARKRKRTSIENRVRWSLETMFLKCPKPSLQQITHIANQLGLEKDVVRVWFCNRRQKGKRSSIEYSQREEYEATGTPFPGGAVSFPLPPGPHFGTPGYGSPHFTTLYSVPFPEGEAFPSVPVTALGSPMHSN

No constants are given. Whether binding was seen depends on the method and setting. In cells and extracts the contact can be indirect. Here binding means that the protein was enriched with, or labelled near, the bait; the list need not be complete.

The target in the assay is Oct4-FTAP fusion protein (mouse) (UniProt P20263). Kind of assay: affinity purification with mass spectrometry; one-step purification on anti-FLAG M2 Dynal beads from whole-cell extracts of Oct4-FTAP ESCs against unmodified control cells (AB2.2); 150 mM NaCl, 0.1% NP-40, 90 min, 4°C; elution with AcTEV protease; three independent purifications; LC-MS/MS.
Take B1: the binding result is given as “binds”.

Turning to B2, the binding result is “binds”.

Regarding B3, the binding result is “binds”.

B4: the binding entry is given as “binds”.

Consider B5, for which the binding result was “binds”.

As for B6, the binding entry is recorded as “binds”.

On to B7, for which the binding result is recorded as “binds”.

Source of the values: paper PMC2860244.
